PubChem BioAssay AID602196 – INSERM | 2012
Shown is one part, drawn at random, of about 23,000 deposited reagents. Of all reagents, 455 (2%) are marked active. 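Active includes both protection and sensitisation; some change values fall well beyond the stated -50 to +50 range.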 Not given: the amount of reagent.

Assay: 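Modifiers of cisplatin sensitivity in A549 cells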
System: human A549 lung cancer cells
Reagents: siRNA pair against human genes
Duration: 48 h transfection before cisplatin; time from cisplatin to read-out not stated
Challenge: cisplatin at a dose killing half of control-siRNA cells; exact dose and duration not given
Measurement: 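Cisplatin cell death as a shift from the 50% death seen with control siRNA; siRNAs toxic or growth-blocking alone scored 0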
Reading the numbers: two-siRNA summed score (-2 to +2): higher = both siRNAs protect from cisplatin killing; -2 means both sensitise; mean protection from cisplatin (shift in death) and protection from cisplatin (shift in death), siRNA C and protection from cisplatin (shift in death), siRNA D: higher = protection from cisplatin killing
Call rule: 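Each siRNA scores 0 if harmful alone by LDH or WST-1, otherwise +1 if it reduces and -1 if it increases cisplatin killing; a gene is active when both siRNAs agree (sum +2 or -2)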
Calls: active = both siRNAs shift cisplatin killing the same way; inactive = no consistent shift, or siRNA harmful alone

no.	target	two-siRNA summed score (-2 to +2)	mean protection from cisplatin (shift in death) (%)	protection from cisplatin (shift in death), siRNA C (%)	protection from cisplatin (shift in death), siRNA D (%)	outcome
1	HDAC6 (histone deacetylase 6)	0	3.7	-1.1	8.6	inactive
2	XPNPEP1 (X-prolyl aminopeptidase 1)	0	-17.7	-36.3	0.9	inactive
3	TP53RK (TP53 regulating kinase)	1	7.8	17.7	-2.1	inactive
4	STRIP2 (striatin interacting protein 2)	0	6.6	11.6	1.6	inactive
5	SFTPD (surfactant protein D)	0	-3.1	-1.2	-4.9	inactive
6	ADH1B (alcohol dehydrogenase 1B (class I), beta polypeptide)	0	-2.1	0.4	-4.6	inactive
7	ASIP (agouti signaling protein)	0	0.7	-1.2	2.7	inactive
8	LOC440048	0	0.4	-5.6	6.4	inactive
9	CYP1A1 (cytochrome P450 family 1 subfamily A member 1)	0	-7.1	-15.7	1.6	inactive
10	SLC25A52	0	3.8	-12.6	20.3	inactive
11	FLJ32682	0	7.6	3	12.3	inactive
12	SMPD3 (sphingomyelin phosphodiesterase 3)	0	3.4	5.6	1.2	inactive
13	EPB41L4A-DT (EPB41L4A divergent transcript)	1	15.5	11.9	19.1	inactive
14	TIMM50 (translocase of inner mitochondrial membrane 50)	0	-1.6	5	-8.3	inactive
15	HOXA11 (homeobox A11)	0	-13.1	-19.1	-7	inactive
16	ZNF556 (zinc finger protein 556)	0	0.6	3.9	-2.8	inactive
17	LOC389239	0	5.7	-0.3	11.8	inactive
18	ZNF558 (zinc finger protein 558)	0	1.9	6.9	-3	inactive
19	KIF9 (kinesin family member 9)	-1	-10.1	2.2	-22.3	inactive
20	EIF2B5 (eukaryotic translation initiation factor 2B subunit epsilon)	0	0.9	-4.8	6.6	inactive
21	CTNNA1 (catenin alpha 1)	1	13.2	25.1	1.3	inactive
22	LOC401622	1	11.5	16	6.9	inactive
23	UBXN6 (UBX domain protein 6)	-1	-9.9	4.8	-24.5	inactive
24	LINC03048 (long independently transcribed non-coding RNA 3048)	1	10.3	9.1	11.4	inactive
25	HSPB2 (heat shock protein family B (small) member 2)	0	3.7	12.3	-4.9	inactive
26	SFRP5 (secreted frizzled related protein 5)	-1	-16.9	-29.7	-4.1	inactive
27	PSMB7 (proteasome 20S subunit beta 7)	0	20.1	18.3	21.9	inactive
28	CDH7 (cadherin 7)	-1	-8.6	-8.9	-8.3	inactive
29	ZNF534 (zinc finger protein 534)	0	-2.7	-4.7	-0.7	inactive
30	SGSM2 (small G protein signaling modulator 2)	1	7.4	6.3	8.5	inactive
31	LRRIQ3 (leucine rich repeats and IQ motif containing 3)	0	-3.1	-8.8	2.6	inactive
32	EPHA1 (EPH receptor A1)	1	11.9	9.2	14.6	inactive
33	RUNX1T1 (RUNX1 partner transcriptional co-repressor 1)	0	-6.4	-14.6	1.7	inactive
34	DDN (dendrin)	2	15.1	19.7	10.5	active
35	LOC344382	0	2.5	7.4	-2.3	inactive
36	ELOVL6 (ELOVL fatty acid elongase 6)	0	7.6	7.1	8.1	inactive
37	ZG16B (zymogen granule protein 16B)	0	-1.1	-6.5	4.4	inactive
38	DDX23 (DEAD-box helicase 23)	0	14.2	28.4	-0.1	inactive
39	ELAVL3 (ELAV like RNA binding protein 3)	0	10.5	7	13.9	inactive
40	LOC387939 (retired record)	0	-0.6	7.1	-8.4	inactive
41	SEMA4A (semaphorin 4A)	0	-1.2	2.6	-5.1	inactive
42	STUM (stum, mechanosensory transduction mediator homolog)	1	12	28.6	-4.5	inactive
43	POLR2F (RNA polymerase II, I and III subunit F)	0	-17	-16.8	-17.1	inactive
44	NOAZFP (nucleolar atypical zinc finger)	0	3.2	5.7	0.7	inactive
45	ATP5IF1 (ATP synthase inhibitory factor subunit 1)	0	3.7	-0.2	7.6	inactive
46	DOCK4 (dedicator of cytokinesis 4)	0	2.2	6	-1.6	inactive
47	LOC285703	1	7.1	-4.7	19	inactive
48	RBMS2 (RNA binding motif single stranded interacting protein 2)	-1	-16	-31.6	-0.3	inactive
49	SMYD3 (SET and MYND domain containing 3)	0	-3	-5	-1	inactive
50	NEK6 (NIMA related kinase 6)	1	0.2	7.5	-7.2	inactive
51	TPSAB1 (tryptase alpha/beta 1)	0	-5.6	-2.5	-8.7	inactive
52	LOC387922	0	8.2	13.3	3	inactive
53	PNO1 (partner of NOB1 homolog)	0	-3.8	-8.1	0.6	inactive
54	LOC440125	0	12.8	17.5	8.2	inactive
55	LOC441284	1	10.5	6.9	14.1	inactive
56	PRAC1 (PRAC1 small nuclear protein)	0	9.8	5.8	13.9	inactive
57	TTC29 (tetratricopeptide repeat domain 29)	1	5	15.7	-5.6	inactive
58	PLAC4 (placenta associated 4)	0	6.6	5.9	7.4	inactive
59	LAPTM5 (lysosomal protein transmembrane 5)	1	9.3	8.4	10.2	inactive
60	BZW1 (basic leucine zipper and W2 domains 1)	0	6.6	1.7	11.4	inactive
61	CACNG6 (calcium voltage-gated channel auxiliary subunit gamma 6)	0	0.8	-3.6	5.1	inactive
62	LOC388375	0	-4	1.4	-9.4	inactive
63	MKNK2 (MAPK interacting serine/threonine kinase 2)	1	10.4	7.2	13.5	inactive
64	LOC340527	0	-6.5	-9	-3.9	inactive
65	RANBP9 (RAN binding protein 9)	0	6.2	36.2	-23.8	inactive
66	LOC388739	0	-1.9	-4.3	0.6	inactive
67	CIMIP6 (ciliary microtubule inner protein 6)	0	6.4	5.6	7.1	inactive
68	LOX (lysyl oxidase)	0	7.2	5.4	9	inactive
69	PIKFYVE (phosphoinositide kinase, FYVE-type zinc finger containing)	2	20.8	10.5	31.2	active
70	CABYR (calcium binding tyrosine phosphorylation regulated)	1	9.3	16.2	2.5	inactive
71	MOV10 (Mov10 RNA helicase)	0	5.3	10	0.6	inactive
72	NEXN (nexilin F-actin binding protein)	1	12.4	1.1	23.6	inactive
73	PCDH18 (protocadherin 18)	0	-14.7	-13.6	-15.8	inactive

9 entries from above, reduced to “protection from cisplatin (shift in death), siRNA C (%)”.
LRRIQ3 (leucine rich repeats and IQ motif containing 3): -8.8
EPHA1 (EPH receptor A1): 9.2
RUNX1T1 (RUNX1 partner transcriptional co-repressor 1): -14.6
DDN (dendrin): 19.7
LOC344382: 7.4
ELOVL6 (ELOVL fatty acid elongase 6): 7.1
ZG16B (zymogen granule protein 16B): -6.5
DDX23 (DEAD-box helicase 23): 28.4
ELAVL3 (ELAV like RNA binding protein 3): 7
